32 molecules from patent US9765382B2, “Application of ruthenium complexes as nucleic acid vectors of target cell nucleuses” (Guangdong Pharmaceutical University, priority 2015, dated 2017) can be followed below.

Some entries repeat one wording, which the source may state once for all of them.

The data set relates to c-myc Pu22. Kind of data set: TEM of ruthenium complex-induced self-assembly of c-myc Pu22 DNA.
The mark [1] stands for this setting: 1 mM complex : 1 mM c-myc Pu22 DNA, 1:1, 90° C. under microwave radiation.
[2] abbreviates: 1 mM complex : 10 mM c-myc Pu22 DNA, 1:10, 90° C. under microwave radiation.
Setting [3] is: 1 mM complex : 1 mM c-myc Pu22, 1:1, heated to 90° C. (no microwave).
Setting [4] is: 10 mM complex : 1 mM c-myc Pu22 DNA, 10:1, 90° C. under microwave radiation.

As to [Ru(bpy)23-BrDPPZ](ClO4)2, the “structure into which the nucleic acid self-assembles (TEM)” value under setting [1] is “analogous nanotube structure”.

With `Brc1cccc(-c2nc3c4cccnc4c4ncccc4c3[nH]2)c1.[O-][Cl+3]([O-])([O-])[O-].[O-][Cl+3]([O-])([O-])[O-].[Ru+2].c1ccc(-c2ccccn2)nc1.c1ccc(-c2ccccn2)nc1` [[Ru(bpy)2mBrPIP](ClO4)2], under setting [2], the “structure into which the nucleic acid self-assembles (TEM)” value is given as “analogous nanotube structure”. For the molecule `Brc1cccc(-c2nc3c4cccnc4c4ncccc4c3[nH]2)c1.[O-][Cl+3]([O-])([O-])[O-].[O-][Cl+3]([O-])([O-])[O-].[Ru+2].c1cnc2c(c1)ccc1cccnc12.c1cnc2c(c1)ccc1cccnc12` [[Ru(phen)2mBrPIP](ClO4)2], the “structure into which the nucleic acid self-assembles (TEM)” value under setting [1] is reported as “analogous nanotube structure”.

Take `COc1cccc(-c2nc3c4cccnc4c4ncccc4c3[nH]2)c1.[O-][Cl+3]([O-])([O-])[O-].[O-][Cl+3]([O-])([O-])[O-].[Ru+2].c1cnc2c(c1)ccc1cccnc12.c1cnc2c(c1)ccc1cccnc12` [[Ru(phen)2mMOPIP](ClO4)2]: under setting [1], the “structure into which the nucleic acid self-assembles (TEM)” value was “analogous nanotube structure”. For [Ru(phen)2pBEPIP](ClO4)2, the “structure into which the nucleic acid self-assembles (TEM)” value is, setting by setting: under setting [3], “analogous nanotube structure”; under setting [1], “analogous nanotube structure”. Consider [Ru(bpy)2mBEPIP](ClO4)2, for which, under setting [1], the “structure into which the nucleic acid self-assembles (TEM)” value was “analogous nanotube structure”.

With Λ-[Ru(bpy)2pBEPIP](ClO4)2, under setting [3], the “structure into which the nucleic acid self-assembles (TEM)” value is listed as “analogous nanotube structure”. `COc1ccc(-c2nc3c4cccnc4c4ncccc4c3[nH]2)cc1.[O-][Cl+3]([O-])([O-])[O-].[O-][Cl+3]([O-])([O-])[O-].[Ru+2].c1ccc(-c2ccccn2)nc1.c1ccc(-c2ccccn2)nc1` [[Ru(bpy)2pMOPIP](ClO4)2]: under setting [1], the “structure into which the nucleic acid self-assembles (TEM)” value was “analogous nanotube structure”. The same measure, in the same setting: the same measure for `Brc1ccc(-c2nc3c4cccnc4c4ncccc4c3[nH]2)cc1.[O-][Cl+3]([O-])([O-])[O-].[O-][Cl+3]([O-])([O-])[O-].[Ru+2].c1ccc(-c2ccccn2)nc1.c1ccc(-c2ccccn2)nc1` [[Ru(bpy)2pBrPIP](ClO4)2]: “analogous nanotube structure”; for `COc1cccc(-c2nc3c4cccnc4c4ncccc4c3[nH]2)c1.[O-][Cl+3]([O-])([O-])[O-].[O-][Cl+3]([O-])([O-])[O-].[Ru+2].c1ccc(-c2ccccn2)nc1.c1ccc(-c2ccccn2)nc1` [[Ru(bpy)2mMOPIP](ClO4)2]: “analogous nanotube structure”. For the molecule [Ru(phen)2pTEPIP](ClO4)2, the “structure into which the nucleic acid self-assembles (TEM)” value under setting [1] is listed as “analogous nanotube structure”. In the case of `Brc1ccccc1-c1nc2c3cccnc3c3ncccc3c2[nH]1.[O-][Cl+3]([O-])([O-])[O-].[O-][Cl+3]([O-])([O-])[O-].[Ru+2].c1ccc(-c2ccccn2)nc1.c1ccc(-c2ccccn2)nc1` [[Ru(bpy)2oBrPIP](ClO4)2], the “structure into which the nucleic acid self-assembles (TEM)” value under setting [2] is on record as “analogous nanotube structure”. On to [Ru(phen)23-BrDPPZ](ClO4)2, for which the “structure into which the nucleic acid self-assembles (TEM)” value under setting [1] is given as “analogous nanotube structure”. Still for that read-out and setting: the same measure for `[O-][Cl+3]([O-])([O-])[O-].[O-][Cl+3]([O-])([O-])[O-].[Ru+2].c1ccc2nc3c4cccnc4c4ncccc4c3nc2c1.c1cnc2c(c1)ccc1cccnc12.c1cnc2c(c1)ccc1cccnc12` [[Ru(phen)2DPPZ](ClO4)2]: “analogous nanotube structure”. In the case of Δ-[Ru(bpy)2pBEPIP](ClO4)2, under setting [3], the “structure into which the nucleic acid self-assembles (TEM)” value is “analogous nanotube structure”.

Consider `Brc1ccccc1-c1nc2c3cccnc3c3ncccc3c2[nH]1.[O-][Cl+3]([O-])([O-])[O-].[O-][Cl+3]([O-])([O-])[O-].[Ru+2].c1cnc2c(c1)ccc1cccnc12.c1cnc2c(c1)ccc1cccnc12` [[Ru(phen)2oBrPIP](ClO4)2], for which the “structure into which the nucleic acid self-assembles (TEM)” value under setting [1] is reported as “analogous nanotube structure”. For the molecule `COc1ccc(-c2nc3c4cccnc4c4ncccc4c3[nH]2)cc1.[O-][Cl+3]([O-])([O-])[O-].[O-][Cl+3]([O-])([O-])[O-].[Ru+2].c1cnc2c(c1)ccc1cccnc12.c1cnc2c(c1)ccc1cccnc12` [[Ru(phen)2pMOPIP](ClO4)2], the “structure into which the nucleic acid self-assembles (TEM)” value under setting [1] is “analogous nanotube structure”. The same measure, in the same setting: the entry for [Ru(phen)2oMOPIP](ClO4)2 is “analogous nanotube structure”; for [Ru(bpy)2oBEPIP](ClO4)2 it is “analogous nanotube structure”. Regarding `[O-][Cl+3]([O-])([O-])[O-].[O-][Cl+3]([O-])([O-])[O-].[Ru+2].c1ccc(-c2nc3c4cccnc4c4ncccc4c3[nH]2)cc1.c1cnc2c(c1)ccc1cccnc12.c1cnc2c(c1)ccc1cccnc12` [[Ru(phen)2PIP](ClO4)2], the “structure into which the nucleic acid self-assembles (TEM)” value under setting [4] is “analogous nanotube structure”.

As for [Ru(bpy)2pEPIP](ClO4)2, the “structure into which the nucleic acid self-assembles (TEM)” value under setting [1] is “analogous nanotube structure”. The same measure, in the same setting: the entry for [Ru(bpy)2pTEPIP](ClO4)2 is “analogous nanotube structure”. In the case of `[O-][Cl+3]([O-])([O-])[O-].[O-][Cl+3]([O-])([O-])[O-].[Ru+2].c1ccc(-c2ccccn2)nc1.c1ccc(-c2ccccn2)nc1.c1ccc(-c2nc3c4cccnc4c4ncccc4c3[nH]2)cc1` [[Ru(bpy)2PIP](ClO4)2], under setting [4], the “structure into which the nucleic acid self-assembles (TEM)” value was “analogous nanotube structure”.

[Ru(bpy)2DPPZ](ClO4)2: the “structure into which the nucleic acid self-assembles (TEM)” value under setting [1] is “analogous nanotube structure”. The same measure, in the same setting: the entry for [Ru(phen)23-BEDPPZ](ClO4)2 is “analogous nanotube structure”. Turning to [Ru(bpy)2pBEPIP](ClO4)2, the “structure into which the nucleic acid self-assembles (TEM)” value under setting [3] is reported as “nanotube structure”. For the molecule [Ru(phen)2pEPIP](ClO4)2, the “structure into which the nucleic acid self-assembles (TEM)” value under setting [1] is reported as “analogous nanotube structure”. On to `Brc1ccc(-c2nc3c4cccnc4c4ncccc4c3[nH]2)cc1.[O-][Cl+3]([O-])([O-])[O-].[O-][Cl+3]([O-])([O-])[O-].[Ru+2].c1cnc2c(c1)ccc1cccnc12.c1cnc2c(c1)ccc1cccnc12` [[Ru(phen)2pBrPIP](ClO4)2], for which, under setting [1], the “structure into which the nucleic acid self-assembles (TEM)” value is reported as “analogous nanotube structure”. As for [Ru(phen)2oBEPIP](ClO4)2, under setting [1], the “structure into which the nucleic acid self-assembles (TEM)” value is “analogous nanotube structure”. The same measure, in the same setting: the same measure for [Ru(phen)2mBEPIP](ClO4)2: “analogous nanotube structure”.

With [Ru(bpy)23-BEDPPZ](ClO4)2, the “structure into which the nucleic acid self-assembles (TEM)” value under setting [1] was “analogous nanotube structure”. Same read-out and setting: the entry for `COc1ccccc1-c1nc2c3cccnc3c3ncccc3c2[nH]1.[O-][Cl+3]([O-])([O-])[O-].[O-][Cl+3]([O-])([O-])[O-].[Ru+2].c1ccc(-c2ccccn2)nc1.c1ccc(-c2ccccn2)nc1` [[Ru(bpy)2oMOPIP](ClO4)2] is “analogous nanotube structure”.
